From patent US20250222069A1 (ACCELERON PHARMA, published 2025)
No constants are given. Whether binding was seen depends on the method and setting. Some results given as binding are weak or reduced against the parent protein; the word gives no strength. Sequences can lack the tags named with a protein.

Molecular target: T1, GDF11 (UniProt O95390 299-407)
T1 construct: also called BMP11
T1 sequence (looked up): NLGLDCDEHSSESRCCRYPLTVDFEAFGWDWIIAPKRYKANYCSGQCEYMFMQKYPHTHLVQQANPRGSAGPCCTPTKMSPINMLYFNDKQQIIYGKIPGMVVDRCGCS
Experiment: Biacore; ligand coupled to chip, receptor flowed over (table reproduced from WO2006/012627)

binding: binds
B1: Soluble ActRIIB-Fc WT (64A) (Fc fusion, UniProt Q13705 19-119, looked up, not shown: a dimerising Fc or GST)
chain: SGRGEAETRECIYYNANWELERTNQSGLERCEGEQDKRLHCYASWANSSGTIELVKKGCWLDDFNCYDRQECVATEENPQVYFCCCEGNFCNERFTHLPEA
